# Measurements: PMC7819943, “Rice protein-binding microarrays: a tool to detect cis-acting elements near promoter regions in rice”
# By UniProt entry, the sequences of proteins in these tests, tags left out.
# UniProt Q0JBA9, entry or part of it: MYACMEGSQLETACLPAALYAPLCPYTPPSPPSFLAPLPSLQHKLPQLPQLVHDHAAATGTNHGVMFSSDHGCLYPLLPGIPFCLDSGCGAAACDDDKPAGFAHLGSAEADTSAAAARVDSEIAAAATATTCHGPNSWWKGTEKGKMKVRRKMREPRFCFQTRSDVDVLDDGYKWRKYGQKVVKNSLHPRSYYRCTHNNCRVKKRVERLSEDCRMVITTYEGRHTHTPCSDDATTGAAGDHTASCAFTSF
# The list shows a part of the results.
# Target: OsWRKY34 (Oryza sativa, UniProt Q0JBA9 1-250)
# Test: protein-binding microarray (RPBM); PBS, 2% BSA, 51.3 ng/ul salmon testes DNA, 50 uM zinc acetate, 200 nM TF, 25 C, 1 h; high values mean tight binding
# Conditions: protein: recombinant; tags: N-terminal polyhistidine and DsRed monomer fusion (pET32a); label: CyDye5-dUTP incorporated in the synthesized complementary strand; 3' TTTTT single-stranded linker to array surface; dsDNA, one strand shown
# Method in brief: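 Per-feature fluorescence intensity (arbitrary units), read on an Axon 4000B scanner, is the binding signal. Transcription factors carrying an N-terminal polyhistidine tag and DsRed fusion were expressed in E. coli BL21-CodonPlus and purified on Ni–NTA. A custom Agilent array, made double-stranded by primer extension with Cy5-dUTP and blocked with 2% BSA, was incubated with 200 nM protein in PBS, 2% BSA, salmon testes DNA and 50 µM zinc acetate at 25 °C for 1 h and then washed.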
row,Sequence,binding signal
1,TTCCCTGACGGCCTATTGAAGAGCTGCCTAGACCACCGCCCGGAGTCACCTAGTGCAG,8290 fluorescence intensity (a.u.)
2,TCCGTTTCTTTTTTGTTTTTGTTTAGGAACAGCATGCTCGCGGAGTCACCTAGTGCAG,12400 fluorescence intensity (a.u.)
3,GTTGAGATTGCAATATTTTATATTTTCTTGTTTGCTTTCACGGAGTCACCTAGTGCAG,8140 fluorescence intensity (a.u.)
4,CTCTCTCTGCCATATCCTGTGCTTTTCTTGTATTCCATCCCGGAGTCACCTAGTGCAG,11400 fluorescence intensity (a.u.)
5,AAGGTTCATCGGACCCACGTGTCAGCTGATTGCTTATTCTCGGAGTCACCTAGTGCAG,8100 fluorescence intensity (a.u.)
6,GAGCTTTGCGCTGGGTGGGCTTGCATTTTTGGGTCTACCGCGGAGTCACCTAGTGCAG,21500 fluorescence intensity (a.u.)
7,TGCGTGCTGCTGCTTATTTACTGCCAGCTCTTTCTGCTAGCGGAGTCACCTAGTGCAG,8320 fluorescence intensity (a.u.)
8,ATTTTAATGGATTTCTGCAAACTTTTAGTAGTAGTAGTATCGGAGTCACCTAGTGCAG,8490 fluorescence intensity (a.u.)
9,ACCACCCAGCTCTCTCCACTCCACTCTCGCGTTCTTGTGGCGGAGTCACCTAGTGCAG,8680 fluorescence intensity (a.u.)
10,AGTGGGTGGTGGTGGTGGTGGTGGTGCGAGGCCGTCGCTGCGGAGTCACCTAGTGCAG,20500 fluorescence intensity (a.u.)
11,ATTTTCCTAGGTTCTTATACTTCTGGCTACCGCAAATTCCCGGAGTCACCTAGTGCAG,11800 fluorescence intensity (a.u.)
12,CAATCTCTCTCTCTCTCTCTCTCGCTGCTGCTGCTCCTTCCGGAGTCACCTAGTGCAG,9770 fluorescence intensity (a.u.)
13,TCAATGTGTGCGTGTGTGGCCTATCTTTTCTTACTCTCTTCGGAGTCACCTAGTGCAG,9410 fluorescence intensity (a.u.)
14,ACGCCGCCTTTTCGTCCCGGTGGATTTCTGCCTCCCTTTTCGGAGTCACCTAGTGCAG,8380 fluorescence intensity (a.u.)
15,TGTCGGCGCCATCCACCTCCGCCTCGTCCTCCTGTGCTTGCGGAGTCACCTAGTGCAG,9380 fluorescence intensity (a.u.)
16,ACTACTTCTGATCCCTCCAGTGTACGGGTTCCTCCAGCAGCGGAGTCACCTAGTGCAG,9590 fluorescence intensity (a.u.)
17,TATTTTGTATACCTATTTTCTTGGGCCATGCCTTATACGACGGAGTCACCTAGTGCAG,8650 fluorescence intensity (a.u.)
18,TTTTCGGGACTGGTTGCATCGGCTTGTCTTCATTGGATTTCGGAGTCACCTAGTGCAG,8680 fluorescence intensity (a.u.)
19,AATTTCAGTTCAATTTGCAGGTTTAAGCTGGTTATCCTTACGGAGTCACCTAGTGCAG,8200 fluorescence intensity (a.u.)
20,CTCTCTCTCTCTCTCTCTCTCCCACGAACGCGACGACTTCCGGAGTCACCTAGTGCAG,10100 fluorescence intensity (a.u.)
21,TCCTAACCCATCCAACTCATCTATATAAGCTCCAACCATTCGGAGTCACCTAGTGCAG,9930 fluorescence intensity (a.u.)

row,Sequence,binding signal
1,ATCCGTATATTATCAGTTGATTCATGATCTCATATTTAAACGGAGTCACCTAGTGCAG,8070 fluorescence intensity (a.u.)
2,TGTCGTCGTGGCATTGGATTGGGAGGGGCCATCGCTGCACCGGAGTCACCTAGTGCAG,8360 fluorescence intensity (a.u.)
3,GCCGCCACCATCCGCCTCTAGGGTTTCGGTTCCATGCGATCGGAGTCACCTAGTGCAG,8200 fluorescence intensity (a.u.)
4,AGGCCAACAGGTTATTAAGTTCTCATTGCACCTTGGTTCTCGGAGTCACCTAGTGCAG,8320 fluorescence intensity (a.u.)
5,TGGAATGTGCTAGTTTTGGCGCCCTTCGCTTGCTTCCTTGCGGAGTCACCTAGTGCAG,9510 fluorescence intensity (a.u.)
6,AGATATACTTCTTCTTGTCGCGCTGCTTACCGTTGATGCGCGGAGTCACCTAGTGCAG,9100 fluorescence intensity (a.u.)
7,ATATTTTCTAATACTTTACATTGTTTATACATTTTCCTTACGGAGTCACCTAGTGCAG,10100 fluorescence intensity (a.u.)
8,CCTACTCCTTTTTCTTTCGACGATTCTGCATTCTACACTTCGGAGTCACCTAGTGCAG,10100 fluorescence intensity (a.u.)
9,GGGCCATCTCCCTGATTCCTGAACAAACTACTCACACTGACGGAGTCACCTAGTGCAG,8200 fluorescence intensity (a.u.)
10,CCGAACCTATATAAAAATCTCTGTCTCCGTCTCTTTTACCCGGAGTCACCTAGTGCAG,8320 fluorescence intensity (a.u.)
11,ACACTCGCGCACTCGGCGGCGCCGCCGTCTTTGCCGTTGCCGGAGTCACCTAGTGCAG,11200 fluorescence intensity (a.u.)
12,ATAAGTATATAACCACCAGTACACACTCTTCCAACACACACGGAGTCACCTAGTGCAG,8050 fluorescence intensity (a.u.)
13,ATAAGACGAACGGTCAAATATGTGCTAAAAAGTCAACGGTCGGAGTCACCTAGTGCAG,16400 fluorescence intensity (a.u.)
14,AGGGAGCCTATTTTAATGTATGACACCGTTGACTTTTTTGCGGAGTCACCTAGTGCAG,19200 fluorescence intensity (a.u.)
15,GAAATATGATTGTTATGCATGACAGCGGCTCAGAGTTGACCGGAGTCACCTAGTGCAG,8600 fluorescence intensity (a.u.)
16,CGTTACCGCTTTCATCACTGCCTCCGTCACGCGCTGCCTACGGAGTCACCTAGTGCAG,10600 fluorescence intensity (a.u.)
17,ATTGTGTTATATGACTTGGCACATCTTTCTTATTTTGAATCGGAGTCACCTAGTGCAG,9170 fluorescence intensity (a.u.)
18,AATGCCCGCAAAGCTTATGGTCCAGTCGAAAGCCCACAGTCGGAGTCACCTAGTGCAG,8400 fluorescence intensity (a.u.)
19,CCTCCGTTTCTAAATATTTAACGCCATTGACTTTTTAGCACGGAGTCACCTAGTGCAG,9160 fluorescence intensity (a.u.)
20,CTAATCCTATTCTAGTAATTATTAATGCAGTAATTTTGTTCGGAGTCACCTAGTGCAG,9180 fluorescence intensity (a.u.)
21,ACGAGTCCTACTATCCATACACACCCGTCCTATGCCGGTTCGGAGTCACCTAGTGCAG,9760 fluorescence intensity (a.u.)

# Reformatted: entries from further up
row	Sequence	binding signal
3	GCCGCCACCATCCGCCTCTAGGGTTTCGGTTCCATGCGATCGGAGTCACCTAGTGCAG	8200 fluorescence intensity (a.u.)
4	AGGCCAACAGGTTATTAAGTTCTCATTGCACCTTGGTTCTCGGAGTCACCTAGTGCAG	8320 fluorescence intensity (a.u.)
5	TGGAATGTGCTAGTTTTGGCGCCCTTCGCTTGCTTCCTTGCGGAGTCACCTAGTGCAG	9510 fluorescence intensity (a.u.)
6	AGATATACTTCTTCTTGTCGCGCTGCTTACCGTTGATGCGCGGAGTCACCTAGTGCAG	9100 fluorescence intensity (a.u.)
7	ATATTTTCTAATACTTTACATTGTTTATACATTTTCCTTACGGAGTCACCTAGTGCAG	10100 fluorescence intensity (a.u.)

# (continued)

row,Sequence,binding signal
1,TTTCTTCAATCGGTATTCCTTTGCATGTTTTAACAGCTGACGGAGTCACCTAGTGCAG,8790 fluorescence intensity (a.u.)
2,CTCGAGATCACCGGGAGAGAGGGGAAAGGGCGGGGACGTCCGGAGTCACCTAGTGCAG,8300 fluorescence intensity (a.u.)
3,ATATGTGCTGCTTGTCAATGCTTCCTCGGTTCTTTTTTTCCGGAGTCACCTAGTGCAG,13000 fluorescence intensity (a.u.)
4,GCGCGTCATCCTCCGCGAATTTTGTTATTCGCTGCCGCTGCGGAGTCACCTAGTGCAG,8250 fluorescence intensity (a.u.)
5,TTTTTCTCTTCTCTCGGCCGCTGCACTTTTTTCTTTCTTTCGGAGTCACCTAGTGCAG,12400 fluorescence intensity (a.u.)
6,ATCCATCTCCTCCCATGTGTGCTTTTGGCAGTGAAGCGATCGGAGTCACCTAGTGCAG,10100 fluorescence intensity (a.u.)
7,GTTCAATTTTGTTTGCTTTGTATCCCTCTGTTGGTAGTTACGGAGTCACCTAGTGCAG,9190 fluorescence intensity (a.u.)
8,CATCGCATATTTGACACAAACTGCACCAATGCTTTCTTCACGGAGTCACCTAGTGCAG,8820 fluorescence intensity (a.u.)
9,ACTTTTCGCATTATAGGCTAGATATTATCTATACATGTCACGGAGTCACCTAGTGCAG,12200 fluorescence intensity (a.u.)
10,ATCCTTCCACGTCATCGATCCGCGCCGCATGCTTTCCACCCGGAGTCACCTAGTGCAG,15400 fluorescence intensity (a.u.)
11,TCCGGTTGTGTTTGTACCTGACAAGTTGATTCATCTCGCACGGAGTCACCTAGTGCAG,9230 fluorescence intensity (a.u.)
12,CCCCACCTGTCACATGCCTCACGCAGCAGAGCTCAACACACGGAGTCACCTAGTGCAG,9150 fluorescence intensity (a.u.)
13,ATACCGCCTATTTGCCACTCGTTTTTCTTCTCTTGGGCCGCGGAGTCACCTAGTGCAG,18700 fluorescence intensity (a.u.)
14,CCCTATCCAACGGCGTGATCTGATTCTGGTGGGATCTTTTCGGAGTCACCTAGTGCAG,8720 fluorescence intensity (a.u.)
15,CACATTCCATATACTTTAATCCCCTGATTTTTCTCCTCCTCGGAGTCACCTAGTGCAG,8540 fluorescence intensity (a.u.)
16,GATACGAATAGTTTAAATTTTTGGCTAATTATTTTTCCAGCGGAGTCACCTAGTGCAG,8200 fluorescence intensity (a.u.)
17,ATAGGCTATGTTCTTTGGACAACTTTTCCAACTTTACTCTCGGAGTCACCTAGTGCAG,8770 fluorescence intensity (a.u.)
18,TCCAGGTAGTCCACCGTGTCGGTCCACTCCGCCGCCGGCGCGGAGTCACCTAGTGCAG,9470 fluorescence intensity (a.u.)
19,CGGTGGTTTGACTGCTTTGACTTTTTTTTTTTTGGACCTTCGGAGTCACCTAGTGCAG,14100 fluorescence intensity (a.u.)
20,CGTTGCCGCCATCACAGTCACTATCATGGCCAGATCCATCCGGAGTCACCTAGTGCAG,8260 fluorescence intensity (a.u.)
21,TAGGTGAGGTAGCTACTTACATGTGCGTTTTTTATTTCTTCGGAGTCACCTAGTGCAG,9180 fluorescence intensity (a.u.)

row,Sequence,binding signal
1,CATATATGGCTGTGTTCTTTTCCCCTCTTTCCTAACTCACCGGAGTCACCTAGTGCAG,8040 fluorescence intensity (a.u.)
2,ACCTGGTCGTTGACTTGAGAGCCAAGCTTTGTTCACTAGCCGGAGTCACCTAGTGCAG,9440 fluorescence intensity (a.u.)
3,CTTCTACCTAATTTATATAATCTGCTAGTACTATACTTACCGGAGTCACCTAGTGCAG,8030 fluorescence intensity (a.u.)
4,CCTCATGGCACCATCTGTCTCACCATCCCGCGGGCAGCTTCGGAGTCACCTAGTGCAG,8800 fluorescence intensity (a.u.)
5,TACCGTTGCCTAGCGCTGTCACAAATCCAACACAAATTCCCGGAGTCACCTAGTGCAG,8850 fluorescence intensity (a.u.)
6,GACAAACATCCTGTACTACTCCCTCCGTTCTATTTTAAATCGGAGTCACCTAGTGCAG,8220 fluorescence intensity (a.u.)
7,TCACGTCGACCTCATCGGCAATTCGGCACCGCACCCTCCCCGGAGTCACCTAGTGCAG,8130 fluorescence intensity (a.u.)
8,TGGGTTGAACTTTGGGTTAATTGAAGTGTATAGCTTAATTCGGAGTCACCTAGTGCAG,9320 fluorescence intensity (a.u.)
9,CCGTCCATCCATCTCCGATGCCGACCCTGCCACCGTCATCCGGAGTCACCTAGTGCAG,12000 fluorescence intensity (a.u.)
10,GTGGTTAGCTATTGGTTGGATGATCTATGTGGGAAAGGCTCGGAGTCACCTAGTGCAG,9460 fluorescence intensity (a.u.)
11,CACTAAAGTTTCATTGGGTTTTCAGTTTTCACTTCATTATCGGAGTCACCTAGTGCAG,10700 fluorescence intensity (a.u.)
12,TGGCTGCCCTCTACTGCCATCCAAAAACCCTAGCCGCACCCGGAGTCACCTAGTGCAG,8840 fluorescence intensity (a.u.)
13,CCTCTCGTGCTCCGGTCTCATCGGCGCCCCAACCGCTTGACGGAGTCACCTAGTGCAG,10900 fluorescence intensity (a.u.)
14,CGTCCTGGTGGTGCCCCATGTGCGAGTTCTTCACCTTCGTCGGAGTCACCTAGTGCAG,8190 fluorescence intensity (a.u.)
15,TGCATTGAAGGGTTTCGTTTTTCTAACTGGAGCAGTATACCGGAGTCACCTAGTGCAG,8560 fluorescence intensity (a.u.)
16,AATTCATGTTTGTTTTCCATGTCTTCACATCATATCATACCGGAGTCACCTAGTGCAG,11400 fluorescence intensity (a.u.)
17,GAGAGGATGATATGTGGGTCCTATTTTTTTTGAATGACAACGGAGTCACCTAGTGCAG,8440 fluorescence intensity (a.u.)
18,CTCGCCTCACACCTCTTCTCTAATTATACCATCTCATCCTCGGAGTCACCTAGTGCAG,8060 fluorescence intensity (a.u.)
19,AAACAGTCACGCCTAACTACATGCCTTATAAATTTCCATACGGAGTCACCTAGTGCAG,9130 fluorescence intensity (a.u.)
20,CGCTTTTGCACAGTATTTTTATTTGCAGAGTTATGTTTGTCGGAGTCACCTAGTGCAG,8090 fluorescence intensity (a.u.)
21,CACGGCCTATTCTTGAAATTAGTTTTTTGCACGGTTTATTCGGAGTCACCTAGTGCAG,8200 fluorescence intensity (a.u.)
